Data as given in PubChem BioAssay AID1053209 (Peter MacCallum Cancer Centre, 2014)

- Purpose: 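Follow-up of single siRNAs that strengthen doxorubicin killing in osteosarcoma cells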 (follow-up of hits)
- System: mouse primary osteosarcoma cells
- Reagents: single siRNA against mouse genes, 25 nM (text also states 40 nM)
- Timing: about 120 h (48 h before drug, then 72 h with drug)
- Treatment: doxorubicin 100 nM (about IC30-40), added 48 h after transfection, for 72 h
- Detection: 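ATP-based luminescent viability, with or without doxorubicin, relative to non-targeting control NT1, mean of two replicates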
- Reading the numbers: viability with doxorubicin, vs NT1: higher = more viable cells under doxorubicin; viability ratio, doxorubicin over no drug: higher = less sensitisation to doxorubicin; viability without drug, vs NT1: higher = more viable cells without drug
- Active means: 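Counted as active (class LC dox) if viability falls to 0.7 of NT1 or below under doxorubicin but stays within 0.7 to 1.1 without drug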
The deposit covers about 1,580 reagents; shown is a part drawn at random. 207 of them (13%) count as active. 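Rows are single siRNAs; four siRNAs per gene were tested, a gene counting as confirmed only when at least two agree.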 The numbers tell different reagents against one gene apart.

| gene | siRNA no. | combined effect class | viability with doxorubicin, vs NT1 | viability ratio, doxorubicin over no drug | viability without drug, vs NT1 | Call |
| --- | --- | --- | --- | --- | --- | --- |
| Kcnk10 (GeneID 72258) | 1 | high viability only without drug | 0.97 | 0.82 | 1.19 | inactive |
| Kcnk10 (GeneID 72258) | 2 | normal viability with and without drug | 0.78 | 0.89 | 0.88 | inactive |
| Kcnk10 (GeneID 72258) | 3 | normal viability with and without drug | 0.75 | 0.91 | 0.82 | inactive |
| Kcnk10 (GeneID 72258) | 4 | high viability only with doxorubicin | 1.1 | 1.17 | 0.94 | inactive |
| Kctd12 (GeneID 239217) | 1 | low viability only with doxorubicin; normal without drug | 0.62 | 0.84 | 0.74 | active |
| Kctd12 (GeneID 239217) | 2 | normal viability with and without drug | 1.03 | 1.01 | 1.02 | inactive |
| Kctd12 (GeneID 239217) | 3 | normal viability with and without drug | 0.97 | 0.93 | 1.04 | inactive |
| Kctd12 (GeneID 239217) | 4 | high viability only with doxorubicin | 1.12 | 1.06 | 1.06 | inactive |
| Krtap13-21 (GeneID 69696) | 1 | normal viability with and without drug | 0.86 | 0.91 | 0.94 | inactive |
| Krtap13-21 (GeneID 69696) | 2 | low viability with and without drug | 0.38 | 0.66 | 0.58 | inactive |
| Krtap13-21 (GeneID 69696) | 3 | normal viability with and without drug | 0.88 | 0.83 | 1.06 | inactive |
| Krtap13-21 (GeneID 69696) | 4 | high viability only with doxorubicin | 1.17 | 1.19 | 0.98 | inactive |
| Snrpd1 (GeneID 20641) | 1 | low viability only with doxorubicin; normal without drug | 0.5 | 0.66 | 0.76 | active |
| Snrpd1 (GeneID 20641) | 2 | low viability with and without drug | 0.16 | 0.33 | 0.48 | inactive |
| Snrpd1 (GeneID 20641) | 3 | low viability with and without drug | 0.04 | 0.13 | 0.31 | inactive |
| Snrpd1 (GeneID 20641) | 4 | low viability only with doxorubicin; normal without drug | 0.52 | 0.62 | 0.84 | active |
| Rps12 (GeneID 20042) | 1 | low viability with and without drug | 0.19 | 0.32 | 0.59 | inactive |
| Rps12 (GeneID 20042) | 2 | normal viability with and without drug | 0.94 | 0.91 | 1.03 | inactive |
| Rps12 (GeneID 20042) | 3 | normal viability with and without drug | 0.74 | 1 | 0.74 | inactive |
| Rps12 (GeneID 20042) | 4 | low viability with and without drug | 0.3 | 0.73 | 0.41 | inactive |
| Tbc1d10b (GeneID 68449) | 1 | normal viability with and without drug | 0.98 | 0.94 | 1.04 | inactive |
| Tbc1d10b (GeneID 68449) | 2 | normal viability with and without drug | 1.09 | 1.01 | 1.08 | inactive |
| Tbc1d10b (GeneID 68449) | 3 | low viability only with doxorubicin; normal without drug | 0.68 | 0.8 | 0.85 | active |
| Tbc1d10b (GeneID 68449) | 4 | low viability only with doxorubicin; normal without drug | 0.64 | 0.78 | 0.82 | active |
| Nuf2 (GeneID 66977) | 1 | low viability with and without drug | 0.66 | 0.99 | 0.67 | inactive |
| Nuf2 (GeneID 66977) | 2 | normal viability with and without drug | 0.96 | 0.99 | 0.97 | inactive |
| Nuf2 (GeneID 66977) | 3 | low viability only with doxorubicin; normal without drug | 0.56 | 0.7 | 0.8 | active |
| Nuf2 (GeneID 66977) | 4 | normal viability with and without drug | 0.87 | 0.99 | 0.88 | inactive |
| Rps27a (GeneID 78294) | 1 | low viability with and without drug | 0.17 | 0.5 | 0.34 | inactive |
| Rps27a (GeneID 78294) | 2 | low viability only with doxorubicin; normal without drug | 0.52 | 0.67 | 0.78 | active |
| Rps27a (GeneID 78294) | 3 | low viability with and without drug | 0.22 | 0.69 | 0.32 | inactive |
| Rps27a (GeneID 78294) | 4 | low viability with and without drug | 0.37 | 0.61 | 0.61 | inactive |

An excerpt from above, showing only “viability with doxorubicin, vs NT1”.
Tbc1d10b (GeneID 68449) #1	0.98
Tbc1d10b (GeneID 68449) #2	1.09
Tbc1d10b (GeneID 68449) #3	0.68
Tbc1d10b (GeneID 68449) #4	0.64
Nuf2 (GeneID 66977) #1	0.66
Nuf2 (GeneID 66977) #2	0.96
Nuf2 (GeneID 66977) #3	0.56
Nuf2 (GeneID 66977) #4	0.87

Continued:
| gene | siRNA no. | combined effect class | viability with doxorubicin, vs NT1 | viability ratio, doxorubicin over no drug | viability without drug, vs NT1 | Call |
| --- | --- | --- | --- | --- | --- | --- |
| Sdr16c5 (GeneID 242285) | 1 | normal viability with and without drug | 1.06 | 1.04 | 1.02 | inactive |
| Sdr16c5 (GeneID 242285) | 2 | low viability with and without drug | 0.28 | 0.52 | 0.54 | inactive |
| Sdr16c5 (GeneID 242285) | 3 | low viability only with doxorubicin; normal without drug | 0.7 | 0.85 | 0.82 | active |
| Sdr16c5 (GeneID 242285) | 4 | normal viability with and without drug | 0.71 | 0.77 | 0.92 | inactive |
| Apobec1 (GeneID 11810) | 1 | normal viability with and without drug | 1 | 1 | 1 | inactive |
| Apobec1 (GeneID 11810) | 2 | high viability only with doxorubicin | 1.14 | 1.14 | 1 | inactive |
| Apobec1 (GeneID 11810) | 3 | normal viability with and without drug | 1 | 1.04 | 0.96 | inactive |
| Apobec1 (GeneID 11810) | 4 | normal viability with and without drug | 1.02 | 0.96 | 1.06 | inactive |
| Nup62 (GeneID 18226) | 1 | low viability with and without drug | 0.42 | 0.62 | 0.68 | inactive |
| Nup62 (GeneID 18226) | 2 | low viability with and without drug | 0.18 | 0.56 | 0.32 | inactive |
| Nup62 (GeneID 18226) | 3 | normal viability with and without drug | 0.91 | 1.2 | 0.76 | inactive |
| Nup62 (GeneID 18226) | 4 | low viability with and without drug | 0.4 | 0.69 | 0.58 | inactive |
| Nat10 (GeneID 98956) | 1 | normal viability with and without drug | 0.94 | 1 | 0.94 | inactive |
| Nat10 (GeneID 98956) | 2 | normal viability with and without drug | 1.03 | 0.98 | 1.05 | inactive |
| Nat10 (GeneID 98956) | 3 | low viability only with doxorubicin; normal without drug | 0.68 | 0.77 | 0.88 | active |
| Nat10 (GeneID 98956) | 4 | normal viability with and without drug | 0.82 | 0.98 | 0.84 | inactive |
| Psmc5 (GeneID 19184) | 1 | normal viability with and without drug | 1.03 | 1.06 | 0.97 | inactive |
| Psmc5 (GeneID 19184) | 2 | low viability with and without drug | 0.31 | 0.53 | 0.58 | inactive |
| Psmc5 (GeneID 19184) | 3 | low viability with and without drug | 0.2 | 0.42 | 0.48 | inactive |
| Psmc5 (GeneID 19184) | 4 | low viability with and without drug | 0.34 | 0.49 | 0.7 | inactive |
| Polr2h (GeneID 245841) | 1 | low viability with and without drug | 0.22 | 0.4 | 0.55 | inactive |
| Polr2h (GeneID 245841) | 2 | normal viability with and without drug | 0.76 | 0.81 | 0.94 | inactive |
| Polr2h (GeneID 245841) | 3 | low viability only with doxorubicin; normal without drug | 0.52 | 0.7 | 0.74 | active |
| Polr2h (GeneID 245841) | 4 | normal viability with and without drug | 0.98 | 0.99 | 0.99 | inactive |
| Rasgrp1 (GeneID 19419) | 1 | high viability only without drug | 1.05 | 0.91 | 1.15 | inactive |
| Rasgrp1 (GeneID 19419) | 2 | normal viability with and without drug | 0.99 | 1.06 | 0.93 | inactive |
| Rasgrp1 (GeneID 19419) | 3 | normal viability with and without drug | 0.98 | 0.98 | 1 | inactive |
| Rasgrp1 (GeneID 19419) | 4 | normal viability with and without drug | 0.94 | 0.87 | 1.08 | inactive |
